Primary screen of a compound library

The values are deposited in ChEMBL (CHEMBL3988442, “University of Dundee, Small-Polar-MMV Screening Library” (2021)).

Results are given as percent effect.
The controls that fix the scale are not given in the record; negative values are as filed.
This is an unselected part of the compounds tested.
Two or more numbers in one place are separate tests of the same structure; such repeats can differ widely.

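Viability assay of Plasmodium falciparum sporozoites; the read-out is not stated. The concentration is filed as 10 mM, unlikely as a test dose, so the dose is not known. The record gives no direction; compounds that gave an IC50 in retests scored well above the rest, so higher reads as lower viability. Strong results were mostly tested again. Of about 34,000 compounds tested this way, about 280 (0.84%) reached 50% or more in at least one test.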

Compound	effect
Fc1cccc(CN2CCC(c3n[nH]c4ncccc34)CC2)c1F	-11.02%
Cc1ccc(CNC(=O)c2nc3c(n2C)CCN(c2ncccn2)C3)o1	12.32%
Cc1ccsc1CN(CCCN(C)C)Cc1ccccn1	-1.339%
COc1ccccc1N1CCN(C(=O)c2ccnc(N(C)C)c2)CC1	11.23%
Cl.Cn1ncc2c1CCCC2NCc1ccc(Br)s1 (centres unmarked)	-26.58% and -4.236% and -26.91%
CN(C)Cc1nnc(C2CCCN(Cc3ccc(Cl)s3)C2)n1C (centres unmarked)	-18.86%
c1cnc(N2CCCC3(CCN(Cc4cccs4)C3)C2)nc1 (centres unmarked)	0%
CCOC1CCCN(C(=O)NCCc2ccn(-c3ccccc3)n2)C1 (centres unmarked)	0.6936%
CC(=O)N1CCc2c(nc(N(C)C)nc2N(C)CCO)C1	-2.281%
Cc1cccc(-c2nccn2C2CC(=O)N(C(C)C)C2)n1 (centres unmarked)	-14.31%
c1ccc(-c2nc(CN3CCCC3Cn3cccn3)no2)cc1 (centres unmarked)	-0.1952%
Cc1noc(CCNC(=O)NCc2ccc(OC3CCCC3)cc2)n1	11.05%
Cc1cc(C)n(CC2CCCN2C(=O)c2c(C)noc2C)n1 (centres unmarked)	4.636%
Cc1cnn(CC2CCCN2C(=O)CCc2ccc3c(c2)OCO3)c1 (centres unmarked)	3.367%
CN1CCN(C(=O)CCCc2ccccc2)CC(O)(Cn2cccn2)C1 (centres unmarked)	5.305%
CC(C)Cn1cncc1-c1nc2c([nH]1)CC(C)(C)CNC2=O	8.246%
CS(=O)(=O)N1CCC(NC(=O)COc2ccc3ccccc3c2)CC1	0.6752%
CC(C)Cc1noc(CN2CCCC(Cn3cncn3)C2)n1 (centres unmarked)	8.271%
Cn1cc(CCNCc2cc(Cl)c3c(c2)OCCO3)cn1	9.533%
Cc1cnc(CN2CCC(N(C)Cc3noc(C4CC4)n3)C2)o1 (centres unmarked)	2.093%
CCOc1ccc(CC(=O)N2CCCC(n3nc(C)nc3C)C2)cc1 (centres unmarked)	-2.342%
O=C(c1ccncc1)N1CCC(c2nc(O)cc(-c3ccncc3)n2)C1 (centres unmarked)	-1.961%
CCc1nc(CS(=O)(=O)Cc2noc(C3CC3)n2)cs1	2.456%
Cc1cc(C)nc(NC(=O)C(C)Oc2ccc3c(c2)OCO3)n1 (centres unmarked)	-5.016%
CN1CC(c2ccccc2)CC12CCN(C(=O)c1ccc(Cl)cn1)CC2 (centres unmarked)	8.931%
CC[C@@H](CO)Nc1cc(-c2cn[nH]c2)ncn1	9.399%
Clc1cnccc1N1CCCOCC1	-0.1095%
CCOc1ccnc(N2CCN(CCOC)CC2)n1	5.943%
O=C([C@H]1CCCO1)N1CCC2(CCCN(CCOc3ccccc3)C2)C1 (some centres unmarked)	11.01%
CCN(CC)C(=O)c1c(Cl)cnn1CC	3.158%
COc1ccccc1CN(C)Cc1ccnc(C2CCCO2)n1 (centres unmarked)	-4.56%
CSCC[C@H](N)c1nnc(SCc2cc(C)ccc2C)o1.Cl	-8.516%
COC[C@@H]1CCC[C@@]12CN(C(=O)C1CCOCC1)CCO2	5.907%
Cc1cc(C)c2cc(CNCc3ccc(C)o3)c3nn(C)c(=O)n3c2c1	12.26%
COc1cccc(CCC(=O)N2CCCC(n3cc(C)cn3)C2)c1 (centres unmarked)	-29.59%
COCC1COCCC12CCN(Cc1nccs1)CC2.O=C(O)C(F)(F)F (centres unmarked)	11.61%
O=C(CCc1ccc(Cl)s1)N1CCC(N2CCNC2=O)CC1	1.599%
CCC(C)(C)NC(=O)c1scnc1Cl	-10.21%
Cc1cc(C)n(C2CCCN(C(=O)c3ccc(NC4CC4)nc3)C2)n1 (centres unmarked)	8.555%
CCOCC1CC2(CCN(C(=O)c3ncccn3)CC2)CO1 (centres unmarked)	-7.056%
Cn1ccnc1CN1CCC2(CC(=O)N(c3cncnc3)C2)C1.O=C(O)C(F)(F)F (centres unmarked)	0.4571%
CC1CCN(Cc2ccc(CNC(=O)c3ccn(C)c(=O)c3)cc2)CC1	8.149%
CCn1ccnc1CN1CCN(C(C)C(=O)N2CCC(C)CC2)CC1 (centres unmarked)	4.261%
O=C(NC1CCC1)C1=NOC2(CCN(Cc3ccco3)C2)C1 (centres unmarked)	-7.056%
Cc1csc(C2(NCc3nc(-c4ccco4)no3)CCCC2)n1	-5.895%
CCC(Nc1ccc(CCN2CCOCC2)cc1)C(N)=O (centres unmarked)	0.3581%
CCOC(=O)CN1CCC2(CCCN(CCOc3ccccc3)C2)C1 (centres unmarked)	-7.22%
CCn1cc(N)c(-c2nnc3n2CCCC3)n1	3.349%
Cc1nc(CN2CCCN(Cc3nc4ccccc4o3)CC2)no1	-2.982%
Cc1cccc(-c2nc(C)nn2CC(=O)NC2CCCC2)c1	12.76%
Cc1cc(C)c(CNC(=O)N2CCCC2c2cccc(F)c2)c(=O)[nH]1 (centres unmarked)	12.29%

Some entries from above, unchanged:

- CN(C)Cc1nnc(C2CCCN(Cc3ccc(Cl)s3)C2)n1C (centres unmarked) : -18.86%
- CCOc1ccnc(N2CCN(CCOC)CC2)n1 : 5.943%
- CN1CCN(C(=O)CCCc2ccccc2)CC(O)(Cn2cccn2)C1 (centres unmarked) : 5.305%
- Cc1cccc(-c2nccn2C2CC(=O)N(C(C)C)C2)n1 (centres unmarked) : -14.31%